# The other results are listed elsewhere or left out. These are further read-outs of the screen, such as a control signal, another cell line or another target. No call is given for them. Compounds called inactive in the main read-out are mostly missing here. Words in brackets tell the shape of the fitted curve; partial curves, single points and poor fits give uncertain potencies.
# Test: qHTS Assay to Find Inhibitors of Chronic Active B-Cell Receptor Signaling
# Settings: ABC-DLBCL IkBa-CBG/CBR reporter, luminescence ratio (green luciferase fused to IkBa over red control in TMD8 lymphoma cells), 4 h
# Method in brief: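 Doxycycline induced both beetle luciferases in TMD8 lymphoma cells; IKK-driven degradation limits the IkappaBalpha-fused green signal, while red luminescence normalises for cell number and nonspecific effects. Compounds tested up to 46 uM, 4 hrs.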
# [1] = measured here: CBR red luminescence, cell number
# [2] = measured here: IkBa-CBG green luminescence
smiles,measurement,setting,value
Cn1nc(C(=O)Nc2ccc(Br)cc2)cc1C(=O)Nc1ccc(Br)cc1,AC50,[1],"22.4 µM [rising, single point]"
COc1cccc(/C=C/C(=O)OCC(=O)c2cc(C)n(CC3CCCO3)c2C)c1OC (stereo not drawn),AC50,[1],"16.4 µM [rising, partial curve, poor fit]"
CCCc1ccc(C(=O)NNc2cccc(C)c2)cc1,AC50,[1],"0.1 µM [falling, full curve, poor fit]"
O=C(OCC(=O)N1CCc2ccccc21)[C@@H]1CC(O)CN1S(=O)(=O)c1ccc(Cl)cc1 (stereo partly drawn),AC50,[1],"4.61 µM [rising, partial curve, poor fit]"
OC(c1cc(-c2ccc(C(F)(F)F)cc2)nc(C(F)(F)F)c1)C1CCCCN1 (stereo not drawn),AC50,[1],"11.2 µM [falling, partial curve, poor fit]"
CNS(=O)(=O)c1ccc(NC(=O)c2cncc(Br)c2)cc1,AC50,[1],"0.112 µM [rising, full curve, poor fit]"
COc1cccc(-n2cc(CNCc3cn(C)nc3-c3ccccc3F)cn2)c1,AC50,[1],"1.78 µM [rising, partial curve, poor fit]"
same,AC50,[2],"11.2 µM [rising, single point]"
COCCn1c(=NC(=O)CSCC(=O)Nc2cc(C)on2)sc2cc(C(=O)OC)ccc21,AC50,[1],"0.92 µM [rising, full curve, poor fit]"
CC(=O)c1cccc(NC(=O)c2cc(C(C)C)on2)c1,AC50,[1],"22.4 µM [falling, single point]"
COc1cccc(N2CCN(CC(=O)Nc3nnc(-c4ccccc4)s3)CC2)c1,AC50,[1],"13 µM [rising, partial curve, poor fit]"
CC(C)CNC(=O)c1cccc(NC(=O)C2CCCO2)c1 (stereo not drawn),AC50,[1],"18.4 µM [rising, partial curve, poor fit]"
CCn1c(SC(C)C(=O)NCC2CCCO2)nc2ccccc21 (stereo not drawn),AC50,[1],"13 µM [rising, partial curve]"
CCN=C1NN=C(c2ccc(C)cc2)CS1,AC50,[1],"0.631 µM [rising, partial curve, poor fit]"
COc1ccccc1-n1c(CNC(=O)c2ccco2)n[nH]c1=S,AC50,[1],"7.08 µM [falling, partial curve, poor fit]"
COc1ccc(-c2nc(SCC(=O)NCc3ccco3)c(-c3ccccc3)[nH]2)cc1OC,AC50,[1],"29.1 µM [falling, partial curve, poor fit]"
COc1ccc(CN(CCCN2CCOCC2)C(=O)Nc2ccccc2)cc1OC,AC50,[1],"35.5 µM [rising, single point]"
N/C(=N\OC(=O)c1ccccc1Br)c1ccc([N+](=O)[O-])cc1,AC50,[1],"12.6 µM [rising, partial curve, poor fit]"
C[N+]1(CC2COC3(CCCCC3)O2)CCCCC1 (stereo not drawn),AC50,[1],"15.8 µM [falling, partial curve, poor fit]"
CCc1ccc(Nc2cc(C(=O)NCCCN3CCOCC3)c3ccccc3n2)cc1,AC50,[2],"1.03 µM [rising, partial curve, poor fit]"
Cc1occc1C(=O)Nc1ccc2ccccc2c1,AC50,[1],"22.4 µM [falling, partial curve]"
Cc1ccc(S(=O)(=O)N2CCOCC2)cc1C(=O)Nc1ccc2c(c1)OCCO2,AC50,[1],"23.1 µM [falling, partial curve, poor fit]"
CCOc1ccc(OCC)c(NC(=O)C2CCCN(S(=O)(=O)c3cnc[nH]3)C2)c1 (stereo not drawn),AC50,[1],"2.59 µM [falling, partial curve]"
CCOc1ccc(NC(=O)Nc2nc3ccc(S(C)(=O)=O)cc3s2)cc1,AC50,[1],"22.4 µM [rising, single point]"
COc1cc(NC(=O)c2onc(C)c2Cl)c(OC)cc1Cl,AC50,[1],"14.6 µM [rising, single point]"
Cc1c(Cl)cccc1NC(=O)c1cc(-c2ccccc2O)n[nH]1,AC50,[1],"5.17 µM [falling, partial curve, poor fit]"
CC1CCCCC1NC(=O)C1CCC(CNS(=O)(=O)c2ccc(F)cc2)CC1 (stereo not drawn),AC50,[1],"35.5 µM [falling, single point]"
CCOC(=O)c1c(NC(=O)CSc2nnc(CN3CCOCC3)n2C)sc2c1CCCC2,AC50,[1],"14.6 µM [falling, partial curve]"
COc1ccccc1NC(=O)Nc1ccc(F)c(F)c1,AC50,[1],"14.1 µM [falling, single point]"
Cc1ccc(C(=O)N2C(=O)C(c3ccccc3)Oc3ccccc32)cc1 (stereo not drawn),AC50,[1],"35.5 µM [rising, single point]"
Cc1cc2[nH]c3ccccc3c2c(C)n1,AC50,[1],"18.4 µM [falling, single point]"
CC(C)c1ccc(OCC(=O)N2CCc3ccccc3C2)cc1,AC50,[1],"17.8 µM [rising, single point]"
CCc1nnc(NC(=O)CSc2ncc(-c3ccccc3)n2CC)s1,AC50,[1],"35.5 µM [falling, single point]"
COC(=O)c1sc2ncccc2c1OCc1ccccc1Cl,AC50,[1],"7.94 µM [rising, partial curve, poor fit]"
O=C1C(=O)N(CC2CCCO2)C(c2ccco2)/C1=C(/O)c1ccc(F)cc1 (stereo not drawn),AC50,[1],"7.08 µM [rising, partial curve, poor fit]"
N#Cc1ccc(/C=N/NC(=O)c2ccccc2F)cc1,AC50,[1],"7.31 µM [falling, partial curve]"
O=C(COC(=O)c1ccc(Cl)nc1)NCCc1ccccc1,AC50,[1],"32.6 µM [rising, single point]"
CN1C(=O)c2cccc3c(S(=O)(=O)N(C)C)ccc1c23,AC50,[1],"14.1 µM [rising, partial curve, poor fit]"
same,AC50,[2],"28.2 µM [falling, single point]"
COc1ccc2cc(C(c3nnnn3CCc3ccccc3)N3CCCC(C)C3)c(=O)[nH]c2c1 (stereo not drawn),AC50,[1],"12.6 µM [falling, single point]"
C/C(=C\c1ccccc1)C(=O)Nc1cc(C)on1,AC50,[1],"1.16 µM [rising, full curve, poor fit]"
O=C(CCCOc1ccc(Cl)cc1Cl)Nc1ncccn1,AC50,[1],"3.55 µM [rising, partial curve, poor fit]"
O=C(Nc1ccccc1N1CCN(C(=O)c2ccc(Cl)cc2)CC1)c1ccc([N+](=O)[O-])o1,AC50,[1],"8.91 µM [rising, partial curve, poor fit]"

# Shown bar-delimited: part of the list above
smiles | measurement | setting | value
Cc1ccc(S(=O)(=O)N2CCOCC2)cc1C(=O)Nc1ccc2c(c1)OCCO2 | AC50 | [1] | 23.1 µM [falling, partial curve, poor fit]
CCOc1ccc(OCC)c(NC(=O)C2CCCN(S(=O)(=O)c3cnc[nH]3)C2)c1 (stereo not drawn) | AC50 | [1] | 2.59 µM [falling, partial curve]
